Among the data in article PMC7819943, “Rice protein-binding microarrays: a tool to detect cis-acting elements near promoter regions in rice” are binding signal values, retold here.

Some of the results follow.

This assay has as its target T1, OsSMF1 (Oryza sativa, UniProt Q6ZLB0 1-436).
T1 sequence: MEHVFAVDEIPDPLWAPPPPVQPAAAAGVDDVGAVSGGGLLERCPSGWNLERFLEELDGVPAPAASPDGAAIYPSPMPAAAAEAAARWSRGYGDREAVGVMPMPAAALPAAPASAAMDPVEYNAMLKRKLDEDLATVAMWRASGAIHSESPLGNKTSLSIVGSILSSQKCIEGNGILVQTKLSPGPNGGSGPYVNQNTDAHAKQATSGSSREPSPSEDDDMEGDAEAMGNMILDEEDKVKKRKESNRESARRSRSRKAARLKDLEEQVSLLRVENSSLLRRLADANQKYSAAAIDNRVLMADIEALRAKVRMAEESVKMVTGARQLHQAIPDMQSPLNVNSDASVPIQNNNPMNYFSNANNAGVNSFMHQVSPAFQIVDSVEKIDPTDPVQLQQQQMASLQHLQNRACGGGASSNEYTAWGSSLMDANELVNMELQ
The experiment in a line: protein-binding microarray (RPBM); PBS, 2% BSA, 51.3 ng/ul salmon testes DNA, 50 uM zinc acetate, 200 nM TF, 25 C, 1 h; high values mean tight binding. To be noted: protein: recombinant; tags: N-terminal polyhistidine and DsRed monomer fusion (pET32a); chain copies: 2; label: CyDye5-dUTP incorporated in the synthesized complementary strand; 3' TTTTT single-stranded linker to array surface; dsDNA, one strand shown. Summed up:
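Using Ni–NTA, transcription factors fused N-terminally to polyhistidine and DsRed were purified after expression in E. coli BL21-CodonPlus. These were incubated at 200 nM with a blocked, double-stranded custom Agilent array for 1 h at 25 °C in a buffer containing 50 µM zinc acetate, and the array was washed. The binding signal is per-feature fluorescence intensity (arbitrary units) on an Axon 4000B scanner.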
Regarding “ATGGGCCTACTGTCAGTGGCATGAGAGGACCACCGTGTACCGGAGTCACCTAGTGCAG”, the binding signal was 3240 fluorescence intensity (a.u.).
“AGCTGCCACCGCCATTGGAGCGCCACGCCACGACACGCGCCGGAGTCACCTAGTGCAG”: the binding signal is 4800 fluorescence intensity (a.u.).
For “GCATGCTCTTCTGATCTGTAATCTCAGGCTCTATTACTCTCGGAGTCACCTAGTGCAG” the value was 3450 fluorescence intensity (a.u.); for “GCACATGACTGTGCAAACGCTGTTCCTGATCTGAGTAAGACGGAGTCACCTAGTGCAG”, 4170 fluorescence intensity (a.u.); for “CACACGGGCACGCCGCGGCGGCCACGTTCTCTTCCCGCTCCGGAGTCACCTAGTGCAG”, 3440 fluorescence intensity (a.u.).
Next, “GCCGCCGCCGCCACCATCGCCGGCGCGTCACAGTCCACCACGGAGTCACCTAGTGCAG”: 5620 fluorescence intensity (a.u.).
Turning to “TGACGGGGATGGTTAATATCTACTCACCATGAGGAATAAACGGAGTCACCTAGTGCAG”, the binding signal was 21600 fluorescence intensity (a.u.).
Take “CAGCAATCTGTCCCTGATCTGAGAATTTTAGACACTCGTACGGAGTCACCTAGTGCAG”: the binding signal was 33900 fluorescence intensity (a.u.).
For “TTGAAACGTAACACTTGATATATGTATACATTATCCAACCCGGAGTCACCTAGTGCAG”, the binding signal was 3150 fluorescence intensity (a.u.).
On to “GCATATATGCCGCTACCTCAGCGCCAACGTACCTGGCGCTCGGAGTCACCTAGTGCAG”, for which the binding signal was 3660 fluorescence intensity (a.u.).
With “AAACCAAGAAACGCAACTGAAGCGAGTGGGTGGAGCGAAGCGGAGTCACCTAGTGCAG”, the binding signal is 27300 fluorescence intensity (a.u.).
As to “ATTTTGCCTCCCTCATCTCTTGCCCTTGTGTGAATAACATCGGAGTCACCTAGTGCAG”, the binding signal is 33300 fluorescence intensity (a.u.).
As to “TAAATATGGACCCACGTGTTATCATGCACACGCCCACATCCGGAGTCACCTAGTGCAG”, the binding signal was 3960 fluorescence intensity (a.u.).
“TCGTCCCCGTCCACGCCGGCGCCTTCCTCGTCCCAAGGCGCGGAGTCACCTAGTGCAG”: the binding signal was 3360 fluorescence intensity (a.u.).
Next, “TAAACTCACTGGATGGTCTGCTGCGTGGCGTGGATATCATCGGAGTCACCTAGTGCAG”: 3650 fluorescence intensity (a.u.).
For the sequence “GTACGAGACTATGAACTGTATGAGTCACATGTTGAATATTCGGAGTCACCTAGTGCAG”, the binding signal was 8000 fluorescence intensity (a.u.).
Take “TAATCAGTCACACACACACCCCTCACACCAGCCGTGTCCACGGAGTCACCTAGTGCAG”: the binding signal is 27300 fluorescence intensity (a.u.).
For “CGGGAGTTTGATACTTTTGGGAACAATTATTTGGAGAGGACGGAGTCACCTAGTGCAG” the value was 3510 fluorescence intensity (a.u.); for “CCCTATCCCCTCATCTCACTGCAGCTTTCCACTATACTACCGGAGTCACCTAGTGCAG”, 27700 fluorescence intensity (a.u.); for “AGTGCTTGGATCAGACATGGCCCAGCTCTGCCCAAGCCCACGGAGTCACCTAGTGCAG”, 3550 fluorescence intensity (a.u.).
On to “ACACAAGTCCTCCCGTACGTGGCCGTGGATATACAAACACCGGAGTCACCTAGTGCAG”, for which the binding signal was 3420 fluorescence intensity (a.u.).
Next, “AGTGTATCTTGTCAGTATTAATTCCAGTCAGCCATGAATTCGGAGTCACCTAGTGCAG”: 3490 fluorescence intensity (a.u.); “CCGTGGGTTCTATAAAGCATGACGATGTGTTTCAGCTGTACGGAGTCACCTAGTGCAG”: 4800 fluorescence intensity (a.u.).
As to “CCGAGGCCGAGACGGACACCGCGCCGCGCTGGTCAGCGACCGGAGTCACCTAGTGCAG”, the binding signal is 3890 fluorescence intensity (a.u.).
In the case of “TGAATTTAAACTCTCGCTGACATGCATAAACTTCATTCGTCGGAGTCACCTAGTGCAG”, the binding signal is 3160 fluorescence intensity (a.u.).
For “GTGGAGTAGTGGCGCTTGTGCTTCCACGTCGCCACCAACCCGGAGTCACCTAGTGCAG”, the binding signal was 9000 fluorescence intensity (a.u.).
As for “TCAATCAATAGATCGAGCACACATCATCCTAGTCTTTCCTCGGAGTCACCTAGTGCAG”, the binding signal was 5140 fluorescence intensity (a.u.).
With “GAGGAAATCATTTTGGTGCAGCGCAACCATTGATGCTTTTCGGAGTCACCTAGTGCAG”, the binding signal was 3200 fluorescence intensity (a.u.).
With “GTTATTTTAACAAGTCAGCTTGCATTAATGAAAACTTCTGCGGAGTCACCTAGTGCAG”, the binding signal is 4300 fluorescence intensity (a.u.).
Regarding “ACAAATACTGATACATATACCTATACGTATGCGTCACCGTCGGAGTCACCTAGTGCAG”, the binding signal was 8380 fluorescence intensity (a.u.).
“CCACCTCCACCGACGCCGCCGTCGTGTCGCCGTCTCCGAGCGGAGTCACCTAGTGCAG”: the binding signal is 5820 fluorescence intensity (a.u.).
As for “GTCGAGTTCGCGCATGCGCCGCCGTGGCGACGACCTAGCTCGGAGTCACCTAGTGCAG”, the binding signal was 4020 fluorescence intensity (a.u.).
Regarding “AGGAGGGGACGTGCACGCCGCACCACCACCACCACCACCACGGAGTCACCTAGTGCAG”, the binding signal is 3460 fluorescence intensity (a.u.).
Consider “TGGTATCTAGCAGTTAGTACCTCAGAAGTTAGAGGTCACACGGAGTCACCTAGTGCAG”, for which the binding signal was 18900 fluorescence intensity (a.u.).
In the case of “AAAGACAGCTCGAAGATACATAGATGACACGGAAACAGGGCGGAGTCACCTAGTGCAG”, the binding signal is 4410 fluorescence intensity (a.u.).
For “ACGATTTTACGAATGCTGACGCCTTTCATCACCAATCTACCGGAGTCACCTAGTGCAG”, the binding signal is 3850 fluorescence intensity (a.u.).
For “AAATAATACACGTCATAGACCCATAGAAGATTCTCCCTTTCGGAGTCACCTAGTGCAG” the value was 18600 fluorescence intensity (a.u.); for “AGTTCACCACCACCGCCACGCGCGCGCTGTCTCCAAACACCGGAGTCACCTAGTGCAG”, 4190 fluorescence intensity (a.u.).
On to “CAATTATGTGCATATTCTTAGATGACGTAAAGAGCTCCGGCGGAGTCACCTAGTGCAG”, for which the binding signal is 4100 fluorescence intensity (a.u.).
In the case of “CTAAGCTGTGTACTACTCCTCAAGATGACACCACCACCATCGGAGTCACCTAGTGCAG”, the binding signal was 3780 fluorescence intensity (a.u.).
For the sequence “CACCACACTCAAGATCAATGTCGCGATCCACGGCGGCGACCGGAGTCACCTAGTGCAG”, the binding signal is 3380 fluorescence intensity (a.u.).
Regarding “GCACGGACGGACGGACTCACGCACGCACTCACGCATACATCGGAGTCACCTAGTGCAG”, the binding signal was 3360 fluorescence intensity (a.u.).
